# PMC6042963
# Sequences of proteins named here, by UniProt entry; tags and fusion partners are left off.
# UniProt Q8VEK2: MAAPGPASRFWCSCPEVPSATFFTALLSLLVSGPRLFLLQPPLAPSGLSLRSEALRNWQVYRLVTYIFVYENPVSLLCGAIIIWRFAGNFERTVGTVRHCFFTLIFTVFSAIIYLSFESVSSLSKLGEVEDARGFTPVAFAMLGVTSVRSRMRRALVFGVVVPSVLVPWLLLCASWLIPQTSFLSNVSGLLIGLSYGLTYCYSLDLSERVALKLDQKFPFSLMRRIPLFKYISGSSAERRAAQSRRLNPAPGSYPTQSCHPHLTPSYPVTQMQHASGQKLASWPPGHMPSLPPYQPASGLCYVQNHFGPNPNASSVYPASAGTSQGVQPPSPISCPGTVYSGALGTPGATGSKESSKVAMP
# UniProt Q9Y3P4: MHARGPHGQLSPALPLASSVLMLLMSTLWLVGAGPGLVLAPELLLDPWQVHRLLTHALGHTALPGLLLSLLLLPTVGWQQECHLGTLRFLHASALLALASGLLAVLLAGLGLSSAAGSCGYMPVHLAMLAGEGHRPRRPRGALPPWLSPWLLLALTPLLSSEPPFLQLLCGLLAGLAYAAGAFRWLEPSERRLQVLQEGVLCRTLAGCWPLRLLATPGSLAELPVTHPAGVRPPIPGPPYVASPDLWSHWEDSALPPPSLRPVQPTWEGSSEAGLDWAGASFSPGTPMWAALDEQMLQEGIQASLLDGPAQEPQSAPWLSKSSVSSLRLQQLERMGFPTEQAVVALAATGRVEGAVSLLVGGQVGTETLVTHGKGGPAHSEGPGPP
# Results are given in words; binding and its absence hold for the method and conditions named. In cells and extracts the contact can be indirect. These calls come from enrichment with a bait or labelling near it, and not all partners need be listed. For part of these data: A no says only that the protein was not detected with the bait. For part of these data: Sequences can lack the tags named with a protein.
# T1: HA-tagged mouse Ubac2 (mouse) (UniProt Q8R1K1)
# T1 sequence: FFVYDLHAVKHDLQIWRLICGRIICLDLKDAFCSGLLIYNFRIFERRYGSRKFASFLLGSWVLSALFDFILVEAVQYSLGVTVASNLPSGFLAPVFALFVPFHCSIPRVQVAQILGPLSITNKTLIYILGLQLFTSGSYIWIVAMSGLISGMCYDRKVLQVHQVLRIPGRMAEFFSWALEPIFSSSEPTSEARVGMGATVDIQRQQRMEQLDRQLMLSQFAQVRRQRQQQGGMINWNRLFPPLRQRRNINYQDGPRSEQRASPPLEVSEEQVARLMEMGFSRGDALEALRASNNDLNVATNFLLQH
# T2: HA-tagged full-length human iRhom1 (human) (UniProt Q96CC6)
# T2 sequence: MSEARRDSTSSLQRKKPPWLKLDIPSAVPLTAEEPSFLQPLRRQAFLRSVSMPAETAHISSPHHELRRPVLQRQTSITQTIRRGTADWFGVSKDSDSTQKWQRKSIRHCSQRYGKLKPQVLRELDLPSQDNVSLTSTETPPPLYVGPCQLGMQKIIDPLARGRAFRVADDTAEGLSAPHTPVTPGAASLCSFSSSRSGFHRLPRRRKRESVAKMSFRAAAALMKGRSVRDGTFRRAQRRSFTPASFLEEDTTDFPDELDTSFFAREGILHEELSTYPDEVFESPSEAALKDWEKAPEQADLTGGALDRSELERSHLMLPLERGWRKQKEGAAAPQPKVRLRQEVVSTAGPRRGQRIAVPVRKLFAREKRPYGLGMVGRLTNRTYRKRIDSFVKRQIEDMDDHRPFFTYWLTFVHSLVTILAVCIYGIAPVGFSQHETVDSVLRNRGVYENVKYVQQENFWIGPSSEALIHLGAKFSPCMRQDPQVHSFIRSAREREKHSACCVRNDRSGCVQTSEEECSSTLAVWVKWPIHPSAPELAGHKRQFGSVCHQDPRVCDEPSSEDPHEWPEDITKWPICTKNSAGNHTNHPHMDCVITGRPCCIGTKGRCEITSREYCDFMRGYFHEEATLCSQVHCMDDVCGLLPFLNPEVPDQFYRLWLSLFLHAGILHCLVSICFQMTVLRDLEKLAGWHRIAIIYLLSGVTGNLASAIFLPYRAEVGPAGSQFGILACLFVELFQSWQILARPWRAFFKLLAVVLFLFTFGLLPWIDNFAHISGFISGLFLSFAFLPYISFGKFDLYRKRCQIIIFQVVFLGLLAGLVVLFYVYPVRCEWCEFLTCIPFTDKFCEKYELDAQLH
# T3: HA-tagged cytoplasmic N-terminus of human iRhom1 (amino acids 1-404) (human) (UniProt Q96CC6)
# T3 sequence: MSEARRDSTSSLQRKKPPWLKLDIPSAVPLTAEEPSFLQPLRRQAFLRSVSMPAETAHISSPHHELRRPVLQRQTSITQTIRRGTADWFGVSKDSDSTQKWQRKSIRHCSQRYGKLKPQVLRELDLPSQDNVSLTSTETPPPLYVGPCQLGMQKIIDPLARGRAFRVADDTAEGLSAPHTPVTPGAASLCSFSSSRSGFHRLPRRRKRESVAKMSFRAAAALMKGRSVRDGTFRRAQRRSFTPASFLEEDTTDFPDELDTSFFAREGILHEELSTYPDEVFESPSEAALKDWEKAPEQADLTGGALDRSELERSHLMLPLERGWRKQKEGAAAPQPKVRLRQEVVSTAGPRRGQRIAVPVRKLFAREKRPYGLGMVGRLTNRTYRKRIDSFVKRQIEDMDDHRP
# T4: HA-tagged full-length mouse iRhom2 (mouse) (UniProt Q80WQ6)
# T4 sequence: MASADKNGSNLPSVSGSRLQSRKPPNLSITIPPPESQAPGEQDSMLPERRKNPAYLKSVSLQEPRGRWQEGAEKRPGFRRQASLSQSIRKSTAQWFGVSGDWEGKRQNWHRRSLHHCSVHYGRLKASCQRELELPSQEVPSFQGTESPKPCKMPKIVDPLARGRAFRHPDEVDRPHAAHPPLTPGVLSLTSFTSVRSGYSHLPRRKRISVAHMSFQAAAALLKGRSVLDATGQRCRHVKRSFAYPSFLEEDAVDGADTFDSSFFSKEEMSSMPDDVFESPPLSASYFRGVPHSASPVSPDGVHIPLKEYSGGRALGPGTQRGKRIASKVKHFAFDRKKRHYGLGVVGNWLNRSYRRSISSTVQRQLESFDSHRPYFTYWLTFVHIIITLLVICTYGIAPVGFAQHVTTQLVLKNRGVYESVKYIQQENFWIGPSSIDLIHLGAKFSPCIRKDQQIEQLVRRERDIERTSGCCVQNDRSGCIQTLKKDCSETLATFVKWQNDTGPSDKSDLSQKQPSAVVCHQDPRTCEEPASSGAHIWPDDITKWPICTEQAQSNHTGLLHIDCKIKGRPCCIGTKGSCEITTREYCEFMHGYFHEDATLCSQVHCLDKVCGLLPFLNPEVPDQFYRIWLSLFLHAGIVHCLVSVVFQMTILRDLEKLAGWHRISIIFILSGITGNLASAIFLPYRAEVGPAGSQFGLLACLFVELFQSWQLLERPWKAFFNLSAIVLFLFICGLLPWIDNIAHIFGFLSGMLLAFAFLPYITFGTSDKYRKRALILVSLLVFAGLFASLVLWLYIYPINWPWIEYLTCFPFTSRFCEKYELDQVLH
# Legend:
# Experiment in all cases: affinity purification with mass spectrometry; anti-HA immunoprecipitates from HEK 293ET lines stably expressing HA-tagged rhomboid-like proteins, cells untreated or treated with the crosslinker DSP (0.2 mg/mL); LC-MS/MS
# [1] = biological target: T1, HA-tagged mouse Ubac2 (mouse)
# [2] = biological target: T2, HA-tagged full-length human iRhom1 (human)
# [3] = biological target: T3, HA-tagged cytoplasmic N-terminus of human iRhom1 (amino acids 1-404) (human)
# [4] = biological target: T4, HA-tagged full-length mouse iRhom2 (mouse)
# [5] = biological target: HA-tagged mouse Rhbdd2 (mouse) (UniProt Q8VEK2)
# [6] = biological target: HA-tagged human RHBDD3 (human) (UniProt Q9Y3P4)
binder,measurement,setting,value
"endogenous FRMD8 (FERM Domain-containing protein 8), named iTAP (iRhom Tail-Associated Protein) (protein, UniProt Q9BZ67 1-464) MDGTEGSAGQPGPAERSHRSSVSSVGARAADVLVYLADDTVVPLAVENLPSLSAHELHRAVREVLQLPDIALDVFALWLVSPLLEVQLKPKHQPYKLGRQWPELLLRFTSAPDDDVAMDEPFLQFRRNVFFPKRRELQIHDEEVLRLLYEEAKGNVLAARYPCDVEDCEALGALVCRVQLGPYQPGRPAACDLREKLDSFLPAHLCKRGQSLFAALRGRGARAGPGEQGLLNAYRQVQEVSSDGGCEAALGTHYRAYLLKCHELPFYGCAFFHGEVDKPAQGFLHRGGRKPVSVAISLEGVHVIDSREKHVLLGLRFQELSWDHTSPEEEEPILWLEFDGDSEGTPVNKLLKIYSKQAELMSSLIEYCIELSQAAEPAGPQDSATGSPSDPSSSLAPVQRPKLRRQGSVVSSRIQHLSTIDYVEDGKGIRRVKPKRTTSFFSRQLSLGQGSYTVVQPGDSLEQG",binding,[1],no binding
same,binding,[2],binds
same,binding,[3],binds
same,binding,[4],binds
same,binding,[5],no binding
same,binding,[6],no binding
